{"source": "PubChem BioAssay AID504771 – Drosophila RNAi Screening Center | 2011", "test": "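Genes whose knock-down alters aggregation of mutant huntingtin with 46 glutamines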 (follow-up of hits)", "system": "Drosophila S2 cells with copper-inducible mutant huntingtin exon 1 (46 glutamines)-eGFP", "knock-down reagent": "long dsRNA against Drosophila genes, 250 ng dsRNA per well", "timing": "3 days of knock-down, then 2 days of copper induction before fixing", "treatment": "copper sulfate at 400 µM to switch on Htt-Q46-eGFP expression", "read-out": "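Per-well count, size and brightness of GFP aggregates from automated images, set against plate mean and SD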", "rule for the call": "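Primary hit when aggregate count, size or brightness differed from plate mean by over 2 SD; called active only after clearing every validation step (off-target, repeat, second dsRNA, promoter counter-screen)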", "calls": "active = confirmed modifier; inactive = primary candidate not confirmed", "note": "Only reagents picked out of a larger screen are listed. 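All genes were primary candidates; inactive means validation failed, not no effect; aggregate scores behind calls are not deposited.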 Unmarked entries are inactive. The numbers tell different reagents against one gene apart. A plus sign joins genes that one reagent is predicted to hit."}
{"target gene": "Sumo (Small ubiquitin like modifier)", "reagent no.": 1, "aggregation phenotype": "knock-down lowers aggregates (active)"}
{"target gene": "Hsf (Heat shock factor)", "reagent no.": 1, "aggregation phenotype": "knock-down raises aggregates (active)"}
{"target gene": "RpL8 (Ribosomal protein L8)", "reagent no.": 1, "aggregation phenotype": "knock-down lowers aggregates"}
{"target gene": "RpL8 (Ribosomal protein L8)", "reagent no.": 2, "aggregation phenotype": "knock-down lowers aggregates"}
{"target gene": "Mtr3", "reagent no.": 1, "aggregation phenotype": "knock-down lowers aggregates"}
{"target gene": "Pits (Protein interacting with Ttk69 and Sin3A)", "reagent no.": 1, "aggregation phenotype": "knock-down lowers aggregates"}
{"target gene": "BubR1 (Bub1-related kinase)", "reagent no.": 1, "aggregation phenotype": "knock-down lowers aggregates (active)"}
{"target gene": "Sf3b6 (Splicing factor 3b subunit 6)", "reagent no.": 1, "aggregation phenotype": "knock-down lowers aggregates"}
{"target gene": "nub (nubbin)", "reagent no.": 1, "aggregation phenotype": "knock-down raises aggregates"}
{"target gene": "RpS15 (Ribosomal protein S15)", "reagent no.": 1, "aggregation phenotype": "knock-down lowers aggregates"}
{"target gene": "cbc (crowded by cid)", "reagent no.": 1, "aggregation phenotype": "knock-down lowers aggregates"}
{"target gene": "RpS19a (Ribosomal protein S19a)", "reagent no.": 1, "aggregation phenotype": "knock-down lowers aggregates"}
{"target gene": "Prosbeta5 (Proteasome beta5 subunit)", "reagent no.": 1, "aggregation phenotype": "knock-down lowers aggregates"}
{"target gene": "Prosbeta7 (Proteasome beta7 subunit)", "reagent no.": 1, "aggregation phenotype": "knock-down lowers aggregates"}
{"target gene": "Taf12 (TBP-associated factor 12)", "reagent no.": 1, "aggregation phenotype": "knock-down raises aggregates"}
{"target gene": "eIF3k (eukaryotic translation initiation factor 3 subunit k)", "reagent no.": 1, "aggregation phenotype": "knock-down raises aggregates"}
{"target gene": "mRpL45 (mitochondrial ribosomal protein L45)", "reagent no.": 1, "aggregation phenotype": "knock-down lowers aggregates"}
{"target gene": "mad2", "reagent no.": 1, "aggregation phenotype": "knock-down lowers aggregates"}
{"target gene": "CG4849", "reagent no.": 1, "aggregation phenotype": "knock-down lowers aggregates"}
{"target gene": "RpL13 (Ribosomal protein L13)", "reagent no.": 1, "aggregation phenotype": "knock-down lowers aggregates"}
{"target gene": "CkIIalpha (casein kinase IIalpha)", "reagent no.": 1, "aggregation phenotype": "knock-down lowers aggregates (active)"}
{"target gene": "CG34386", "reagent no.": 1, "aggregation phenotype": "knock-down raises aggregates"}
{"target gene": "CG5359", "reagent no.": 1, "aggregation phenotype": "knock-down raises aggregates"}
{"target gene": "RpL30 (Ribosomal protein L30)", "reagent no.": 1, "aggregation phenotype": "knock-down lowers aggregates"}
{"target gene": "Polr2B (RNA polymerase II subunit B)", "reagent no.": 1, "aggregation phenotype": "knock-down lowers aggregates"}
{"target gene": "snRNP-U1-C (small ribonucleoprotein particle U1 subunit C)", "reagent no.": 1, "aggregation phenotype": "knock-down lowers aggregates"}
{"target gene": "srp (serpent)", "reagent no.": 1, "aggregation phenotype": "knock-down lowers aggregates"}
{"target gene": "Sodh2 (Sorbitol dehydrogenase 2)", "reagent no.": 1, "aggregation phenotype": "knock-down raises aggregates"}
{"target gene": "TfIIEalpha (Transcription factor IIEalpha)", "reagent no.": 1, "aggregation phenotype": "knock-down lowers aggregates"}
{"target gene": "raw", "reagent no.": 1, "aggregation phenotype": "knock-down may raise aggregates (active)"}
{"target gene": "Taf4 (TBP-associated factor 4)", "reagent no.": 1, "aggregation phenotype": "knock-down raises aggregates (active)"}
{"target gene": "RpS11 (Ribosomal protein S11)", "reagent no.": 1, "aggregation phenotype": "knock-down lowers aggregates"}
{"target gene": "Hel25E (Helicase at 25E)", "reagent no.": 1, "aggregation phenotype": "knock-down lowers aggregates (active)"}
{"target gene": "Sec63 (Secretory 63)", "reagent no.": 1, "aggregation phenotype": "knock-down lowers aggregates"}
{"target gene": "Pym (Partner of Y14 and Mago)", "reagent no.": 1, "aggregation phenotype": "knock-down lowers aggregates"}
{"target gene": "Polr2I (RNA polymerase II subunit I)", "reagent no.": 1, "aggregation phenotype": "knock-down lowers aggregates"}
{"target gene": "mus201 + Chrac-14", "reagent no.": 1, "aggregation phenotype": "knock-down may raise aggregates (active)"}
{"target gene": "CCT1 (Chaperonin containing TCP1 subunit 1)", "reagent no.": 1, "aggregation phenotype": "knock-down lowers aggregates (active)"}
{"target gene": "RpL36A (Ribosomal protein L36A)", "reagent no.": 1, "aggregation phenotype": "knock-down lowers aggregates"}
{"target gene": "14-3-3epsilon", "reagent no.": 1, "aggregation phenotype": "knock-down lowers aggregates (active)"}
{"target gene": "MED14 (Mediator complex subunit 14)", "reagent no.": 1, "aggregation phenotype": "knock-down lowers aggregates"}
{"target gene": "lola (longitudinals lacking)", "reagent no.": 1, "aggregation phenotype": "knock-down raises aggregates"}
{"target gene": "CG15080", "reagent no.": 1, "aggregation phenotype": "knock-down lowers aggregates"}
{"target gene": "HDAC1 (Histone deacetylase 1)", "reagent no.": 1, "aggregation phenotype": "knock-down raises aggregates (active)"}
{"target gene": "IntS2 (Integrator 2)", "reagent no.": 1, "aggregation phenotype": "knock-down raises aggregates (active)"}
{"target gene": "Polr2A (RNA polymerase II subunit A)", "reagent no.": 1, "aggregation phenotype": "knock-down lowers aggregates"}
{"target gene": "IntS9 (Integrator 9)", "reagent no.": 1, "aggregation phenotype": "knock-down raises aggregates (active)"}

3 consecutive reagents from above, for reference:
{"target gene": "HDAC1 (Histone deacetylase 1)", "reagent no.": 1, "aggregation phenotype": "knock-down raises aggregates (active)"}
{"target gene": "IntS2 (Integrator 2)", "reagent no.": 1, "aggregation phenotype": "knock-down raises aggregates (active)"}
{"target gene": "Polr2A (RNA polymerase II subunit A)", "reagent no.": 1, "aggregation phenotype": "knock-down lowers aggregates"}
